Reference: paper PMC9929470
Results are given in words; binding and its absence hold for the method and conditions named.

Columns and labels:
[1] = molecular target: recombinant NanB (neuraminidase B of Streptococcus pneumoniae TIGR4) (Streptococcus pneumoniae TIGR4) (UniProt Q54727); assay: SEC-MALS; AdvanceBio SEC 300-Å column connected to a DAWN8 detector, 0.3 ml/min, PBS pH 7.2; both purified
[2] = molecular target: recombinant NanB (neuraminidase B of Streptococcus pneumoniae TIGR4) (Streptococcus pneumoniae TIGR4) (UniProt Q54727); assay: SEC; AdvanceBio SEC 300-Å column, 1 ml/min, PBS pH 7.2 as mobile phase; elution of protein and of enzymatic activity compared with molecular weight standards; both purified

B1: recombinant NanB (neuraminidase B of Streptococcus pneumoniae TIGR4) (enzyme, UniProt Q54727 30-697)
chain: NELNYGQLSISPIFQGGSYQLNNKSIDISSLLLDKLSGESQTVVMKFKADKPNSLQALFGLSNSKAGFKNNYFSIFMRDSGEIGVEIRDAQKGINYLFSRPASLWGKHKGQAVENTLVFVSDSKDKTYTMYVNGIEVFSETVDTFLPISNINGIDKATLGAVNREGKEHYLAKGSIDEISLFNKAISDQEVSTIPLSNPFQLIFQSGDSTQANYFRIPTLYTLSSGRVLSSIDARYGGTHDSKSKINIATSYSDDNGKTWSEPIFAMKFNDYEEQLVYWPRDNKLKNSQISGSASFIDSSIVEDKKSGKTILLADVMPAGIGNNNANKADSGFKEINGHYYLKLKKNGDNDFRYTVRENGVVYNETTNKPTNYTINDKYEVLEGGKSLTVEQYSVDFDSGSLRERHNGKQVPMNVFYKDSLFKVTPTNYIAMTTSQNRGESWEQFKLLPPFLGEKHNGTYLCPGQGLALKSSNRLIFATYTSGELTYLISDDSGQTWKKSSASIPFKNATAEAQMVELRDGVIRTFFRTTTGKIAYMTSRDSGETWSKVSYIDGIQQTSYGTQVSAIKYSQLIDGKEAVILSTPNSRSGRKGGQLVVGLVNKEDDSIDWKYHYDIDLPSYGYAYSAITELPNHHIGVLFEKYDSWSRNELHLSNVVQYIDLEINDLTK
binding [1]: no binding
binding [2]: no binding
